Values of other authors, collected in patent publication US11975105B2 (EMPROS PHARMA AB, priority 2014, dated 2024).
Some of these results come from one statement about several compounds together.

Conditions: in vivo; cited from earlier work

SMILES	intestinal absorption (fa) and bioavailability
CCCCCCCCCCCC(CC1OC(=O)[C@H]1CCCCCC)OC(=O)C(CC(C)C)NC=O (stereo in doubt) [orlistat, (S)—((S)-1-((2S,3S)-3-Hexyl-4-oxooxetan-2-yl)tridecan-2-yl) 2-formamido-4-methylpentanoate]	below 5%
C[C@H]1O[C@H](O[C@H]2[C@H](O)[C@@H](O)[C@@H](O[C@H]3[C@H](O)[C@@H](O)C(O)O[C@@H]3CO)O[C@@H]2CO)[C@H](O)[C@@H](O)[C@@H]1N[C@H]1C=C(CO)[C@@H](O)[C@H](O)[C@H]1O (stereo partly drawn) [acarbose, O-4,6-Dideoxy-4-[[(1 S,4R,5S,6S)-4,5,6-trihydroxy-3-(hydroxymethyl)cyclohex-2-enyl]amino]-α-D-glucopyranosyl-(1→4)-O-α-D-gluco-pyranosyl-(1→4)-D-glucopyranose]	below 5%
